Experimental data reported in PubChem BioAssay AID1259354 (Paczesny and Yang Labs, IUPUI and University of Michigan, 2018).
Several values for one entry are separate records, joined by “and”; a condition that tells them apart may be missing. Equal values may be shown once. About 1,800 (2.3%) of roughly 78,000 compounds were called active. The inconclusive results got no clear call from the source; some entries with a clear call stand among them for comparison. Rule as the data show it: active = inhibition above about 30%; inconclusive = mostly about 10% to 28%; inactive = weaker than that.

Protein sequences, listed by entry. Tags and fused reporters are not part of them. Lines headed by an entry give the natural chain unless they say otherwise; changes in a name come on top.
UniProt Q01638: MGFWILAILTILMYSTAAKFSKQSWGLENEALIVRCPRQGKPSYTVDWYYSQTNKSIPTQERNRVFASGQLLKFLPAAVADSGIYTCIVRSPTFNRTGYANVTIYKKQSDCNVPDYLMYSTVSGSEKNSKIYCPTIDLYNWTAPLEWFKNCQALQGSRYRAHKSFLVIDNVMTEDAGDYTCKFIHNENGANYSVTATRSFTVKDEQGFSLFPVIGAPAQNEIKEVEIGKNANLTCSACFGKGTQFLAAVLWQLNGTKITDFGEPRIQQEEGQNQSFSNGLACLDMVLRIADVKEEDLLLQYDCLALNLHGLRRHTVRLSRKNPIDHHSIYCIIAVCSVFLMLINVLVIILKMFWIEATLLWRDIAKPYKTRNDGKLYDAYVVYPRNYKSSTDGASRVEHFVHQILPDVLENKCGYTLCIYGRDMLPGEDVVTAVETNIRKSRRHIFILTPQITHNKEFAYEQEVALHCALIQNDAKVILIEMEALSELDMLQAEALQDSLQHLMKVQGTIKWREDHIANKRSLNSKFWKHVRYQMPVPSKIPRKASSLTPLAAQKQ

biological target: Interleukin-1 receptor-like 1 (Homo sapiens) (UniProt Q01638); test: blocks human ST2 binding to IL-33, primary screen, biochemical, AlphaLISA (AID 1259354); conditions: AlphaLISA ST2-Fc/biotin-IL-33 interaction, 1 h; at 17 µM, active compounds read high

`O=C(C1CC1)N1CCc2cc(S(=O)(=O)NCCN3CCN(c4ccccc4)CC3)ccc21` was tested. Which inhibition did it give?
The inhibition was inconclusive: 10%.

For `COC(=O)c1cc2n(n1)CCN(Cc1nc3ccccc3n1C(C)C)C2`, which inhibition is on record?
Its inhibition is “inactive”.

`O=C(CCCn1cnc([N+](=O)[O-])n1)Nc1ccc(Br)cc1` was tested. Which inhibition did it give?
Its inhibition is inconclusive: 17% and inconclusive: 16%.

`CC(C)NCC(O)COc1ccc(CC(N)=O)cc1` (centres undefined) was tested. Which inhibition did it give?
Its inhibition is inconclusive: 15%.

How did the inhibition turn out when `COc1ccc(N=c2oc3ccccc3cc2C(=O)Nc2ccc(C)cc2)cc1` was run?
Its inhibition is “inactive”.

How did the inhibition turn out when `O=C(CCCN1C(=O)c2cccnc2Sc2ccccc21)Nc1cc(-c2cccc(Cl)c2)no1` was run?
Its inhibition is inconclusive: 26%.

For `CC1CCN(c2nc3c(c(=O)n(C)c(=O)n3C)n2Cc2cccc(Cl)c2)CC1`, which inhibition is on record?
Its inhibition is inconclusive: 10%.

With `CCOC(=O)C1(CCCc2ccccc2)CCN(C(=O)c2ccc(OC)nc2OC)CC1` as the molecule, how does the inhibition read?
The inhibition was inconclusive: 17%.

Which inhibition does the source give for `COc1cc(C(=O)NC2(Cc3ccc(C)cc3)CC2)ccc1O` here?
Its inhibition is inconclusive: 11%.

With `CCOc1ccc(NC(=O)c2cc3cc(OC)ccc3oc2=O)cc1` as the molecule, how does the inhibition read?
The inhibition was inconclusive: 11%.

How did the inhibition turn out when `O=c1c2cccc3c2c(nn1CN1CCOCC1)-c1ccccc1-3` was run?
Its inhibition is inconclusive: 24%.

How did the inhibition turn out when `COc1ccc(N2CC(NC(=O)c3ccc(F)cc3)CC2=O)cc1` (centres undefined) was run?
The inhibition was “inactive”.

Which inhibition does the source give for `O=C(Cc1c(C(=O)O)[nH]c2ccc(Cl)cc12)Nc1ccc2c(c1)OCCO2` here?
Its inhibition is inconclusive: 11%.

For `CN(C)CCN(C)[C@@H]1[C@H](O)[C@H](CO)O[C@@H]1CNC(=O)Nc1ccc(OC(F)(F)F)cc1`, which inhibition is on record?
Its inhibition is inconclusive: 12%.

Which inhibition does the source give for `Cc1ccnc(CC(C)N(C)C(=O)c2occc2C)c1` (centres undefined) here?
Its inhibition is “inactive”.

For `CC(C)(C)CC(=O)Nc1ccc(Nc2ccccc2)cc1`, which inhibition is on record?
The inhibition was active: 33%.

`Cc1cc2c(cc1C)NC(CC(=O)Nc1ccccc1OC(F)F)C(=O)N2` (centres undefined) was tested. Which inhibition did it give?
The inhibition was inconclusive: 21%.

`O=C(Cc1ccsc1)N1CCc2[nH]nc(-c3ccc4c(c3)OCO4)c2C1` was tested. Which inhibition did it give?
Its inhibition is inconclusive: 13%.

With `CCSc1nc(CC(=O)NCCn2nnc3ccccc32)cs1` as the molecule, how does the inhibition read?
The inhibition was inconclusive: 16%.

Which inhibition does the source give for `O=C(CC1Nc2ccccc2NC1=O)Nc1ccccc1OC(F)F` (centres undefined) here?
Its inhibition is “inactive”.

How did the inhibition turn out when `c1ccc(C2CCN(CCn3cnnc3)CC2)cc1` was run?
Its inhibition is “inactive”.

With `CCCSc1oc(-c2ccco2)nc1S(=O)(=O)c1ccc(C)cc1` as the molecule, how does the inhibition read?
Its inhibition is inconclusive: 16%.

For `COc1ccc(NC(=O)CSc2nc3c(c(=O)n2-c2ccccc2)SCC3)cc1`, which inhibition is on record?
The inhibition was inconclusive: 17% and inconclusive: 11%.

With `O=C(c1cccc(Cl)c1Cl)N1CCN(c2ccc([N+](=O)[O-])cc2)CC1` as the molecule, how does the inhibition read?
The inhibition was inconclusive: 18%.

`CCCn1nc(C)c(CNC(=O)c2sc(CC)nc2C)c1C` was tested. Which inhibition did it give?
Its inhibition is “inactive”.

With `CC1CC(C)CN(c2ncnc(N)c2[N+](=O)[O-])C1` (centres undefined) as the molecule, how does the inhibition read?
The inhibition was “inactive”.

How did the inhibition turn out when `COC(=O)CCCNC(=O)[C@@]1(O)C[C@@H](O)[C@H](O)[C@@H](NC(=O)Nc2ccc(C)cc2)C1` was run?
Its inhibition is inconclusive: 27%.

How did the inhibition turn out when `O=C1N(CC2CCC2)CCCC1(O)CN1CCCOCC1` (centres undefined) was run?
The inhibition was “inactive”.

How did the inhibition turn out when `CCOC(=O)N1CCC(NC(=O)CCN2Cc3cc(Cl)ccc3OC(C)C2)CC1` (centres undefined) was run?
The inhibition was inconclusive: 16%.

Which inhibition does the source give for `O=C(NC[C@H]1O[C@@H](CO)[C@@H](O)[C@H]1N1CCN(c2ccccc2)CC1)Nc1ccc(OC(F)(F)F)cc1` here?
Its inhibition is inconclusive: 21%.

Which inhibition does the source give for `COc1ccc(/C=C/C(=O)N2CCCC(c3nc(C)ncc3Cc3ccccc3)C2)cc1` (centres undefined) here?
The inhibition was inconclusive: 14%.

Which inhibition does the source give for `COc1ccc(C(O)=C2C(=O)C(=O)N(CCN3CCNCC3)C2c2ccccc2F)cc1` (centres undefined) here?
Its inhibition is inconclusive: 12%.

For `CC(Oc1ccccc1)C(=O)Nc1ccccc1I` (centres undefined), which inhibition is on record?
Its inhibition is “inactive”.

How did the inhibition turn out when `CC(=O)Nc1ccc(NC(=O)c2ccccc2Br)cc1` was run?
The inhibition was inconclusive: 11%.

How did the inhibition turn out when `NC(=O)CSc1nc2c(sc3ccccc32)c(=O)n1CCO` was run?
The inhibition was “inactive”.

How did the inhibition turn out when `[N-]=C=C1C(=O)N(CCc2ccccc2)C(=O)[C@H]([n+]2ccccc2)[C@H]1c1ccc(Cl)cc1` was run?
The inhibition was active: 34%.

For `COc1ccc(NC(=O)CCC2CCN(C(=O)C(OC)c3ccccc3)CC2)c(OC)c1` (centres undefined), which inhibition is on record?
The inhibition was inconclusive: 11%.

With `COc1ccc(OCCSc2nc3ccc(Br)cc3[nH]2)cc1` as the molecule, how does the inhibition read?
The inhibition was inconclusive: 13%.

With `COc1ccc(Br)cc1CN1C(=O)CCC1(C)C(=O)NC1CCCCC1` (centres undefined) as the molecule, how does the inhibition read?
The inhibition was inconclusive: 12%.

For `COc1cccc(OC)c1C(=O)Nc1c2c(nn1-c1ccc(F)cc1)CS(=O)C2` (centres undefined), which inhibition is on record?
The inhibition was “inactive”.

`Fc1ccccc1Cc1noc(CN2CCCCC2c2cccnc2)n1` (centres undefined) was tested. Which inhibition did it give?
The inhibition was inconclusive: 16%.

`O=C(O)C1CSC(c2ccccc2Cl)N1C(=O)c1cccc(Cl)c1` (centres undefined) was tested. Which inhibition did it give?
Its inhibition is “inactive”.

`CCN(CCCNS(=O)(=O)c1cccc2cccnc12)c1cccc(C)c1` was tested. Which inhibition did it give?
The inhibition was inconclusive: 13%.

Which inhibition does the source give for `CCCS(=O)(=O)c1cn2cccc(N)c2c1S(=O)(=O)CCC` here?
Its inhibition is inconclusive: 12%.

How did the inhibition turn out when `Oc1cc2c(cc1O)C(c1ccccc1)CNCC2` (centres undefined) was run?
Its inhibition is inconclusive: 18%.

With `CCC1CN(S(=O)(=O)c2ccc3c(c2)NC(=O)CC(=O)N3)c2cc(C)ccc2O1` (centres undefined) as the molecule, how does the inhibition read?
Its inhibition is “inactive”.

`COc1ccc(OC)c(S(=O)(=O)N[C@H]2CO[C@H]3[C@@H]2OC[C@H]3OC(=O)Nc2ccc(Oc3ccccc3)cc2)c1` was tested. Which inhibition did it give?
The inhibition was inconclusive: 10%.

How did the inhibition turn out when `COc1ccc(N(CC(=O)Nc2ccc(F)cc2)S(C)(=O)=O)cc1Cl` was run?
Its inhibition is “inactive”.

`COc1ccc(OC)c(N2C(=O)C3[C@H](C2=O)C2c4ccccc4C3(C(=O)O)c3ccccc32)c1` (some centres undefined) was tested. Which inhibition did it give?
The inhibition was “inactive”.

Which inhibition does the source give for `C[C@@]1(C2CCCC2)Cc2cc(OCC(=O)O)c(Cl)c(Cl)c2C1=O` here?
Its inhibition is inconclusive: 13%.

For `O=C(CCNC(=O)C1CC2(CCNCC2)CN1)Nc1nccs1` (centres undefined), which inhibition is on record?
The inhibition was inconclusive: 17%.

With `COc1cccc2ccc(CN3CCC4(CC3)C(=O)N(Cc3cccnc3)C(=O)N4C)nc12` as the molecule, how does the inhibition read?
The inhibition was “inactive”.

With `CN1C[C@@H]2CC[C@H](CC1=O)N2C(=O)c1cc2ccccn2n1` as the molecule, how does the inhibition read?
Its inhibition is inconclusive: 14%.

For `N#CSCCCCOc1ccc(I)cc1`, which inhibition is on record?
The inhibition was “inactive”.

`Cc1c(C(=O)Cc2ccccc2)n(C)c2ccccc12` was tested. Which inhibition did it give?
The inhibition was active: 37%.

`COc1ccc2cc3cc(C(=O)N4CCC(N5CCCCC5)CC4)oc3nc2c1` was tested. Which inhibition did it give?
The inhibition was “inactive”.

For `C=Cc1cccc(CN2CCC3(CC2)CNC(=O)C3)c1`, which inhibition is on record?
Its inhibition is inconclusive: 25%.

With `O=C(c1cc(Br)cc(Br)c1)N1CCCCCC1` as the molecule, how does the inhibition read?
Its inhibition is inconclusive: 12%.

`COc1ccc(C2=NN(C(C)=O)C(c3ccc(Br)cc3)C2)cc1` (centres undefined) was tested. Which inhibition did it give?
Its inhibition is inconclusive: 15%.
